Results are given in words; binding and its absence hold for the method and conditions named. Binding seen in cells or lysates may run through a third protein. Here binding means that the protein was enriched with, or labelled near, the bait; the list need not be complete.
Molecular target: T1, GABAA receptor α1 subunit, native, from mouse brain (mouse (endogenous in mouse brain)), P62812
T1 chain: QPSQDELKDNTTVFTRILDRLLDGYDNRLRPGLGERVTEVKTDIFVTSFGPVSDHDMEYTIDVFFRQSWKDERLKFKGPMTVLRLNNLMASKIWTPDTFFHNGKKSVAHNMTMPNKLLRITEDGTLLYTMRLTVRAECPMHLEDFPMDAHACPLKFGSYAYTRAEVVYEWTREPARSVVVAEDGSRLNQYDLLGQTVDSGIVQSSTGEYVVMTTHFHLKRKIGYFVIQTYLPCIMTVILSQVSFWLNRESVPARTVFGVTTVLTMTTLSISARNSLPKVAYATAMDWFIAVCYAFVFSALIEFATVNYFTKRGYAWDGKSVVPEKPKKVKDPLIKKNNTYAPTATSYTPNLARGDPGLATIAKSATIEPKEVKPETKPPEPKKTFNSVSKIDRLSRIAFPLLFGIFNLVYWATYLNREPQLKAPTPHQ
Test: affinity purification with mass spectrometry; native receptors isolated through the α1 subunit with 8E3-GFP Fab, in nanodiscs, pentameric SEC peak, about 5 μg protein; two mass spectrometry methods
Conditions: remark: other sources report otherwise

B1: GABAA receptor α4 subunit, native, from mouse brain, Q9D6F4 36-552 (receptor)
chain: QNSKDEKLCPENFTRILDSLLDGYDNRLRPGFGGPVTEVKTDIYVTSFGPVSDVEMEYTMDVFFRQTWIDKRLKYDGPIEILRLNNMMVTKVWTPDTFFRNGKKSVSHNMTAPNKLFRIMRNGTILYTMRLTISAECPMRLVDFPMDGHACPLKFGSYAYPKSEMIYTWTKGPEKSVEVPKESSSLVQYDLIGQTVSSETIKSITGEYIVMTVYFHLRRKMGYFMIQTYIPCIMTVILSQVSFWINKESVPARTVFGITTVLTMTTLSISARHSLPKVSYATAMDWFIAVCFAFVFSALIEFAAVNYFTNIQMQKAKKKISKPPPEVPAAPVLKEKHTETSLQNTHANLNMRKRTNALVHSESDVKSRTEVGNHSSKTSAVQESSEATPKAHLASSPNPFSRANAAETMSAAARGLSSAASPSPHGTLRPASLGSASTRPAFGSRLGRIKTTVNTTGAAGNVSATPPPPAPPPSGSGTSKIDKYARILFPVTFGAFNMVYWVVYLSKDTMEKSESLM
modifications: here or on the partner: N-glycosylation
**Q.** B1 was tested. Which binding did it give?
**A.** binds

Reference: publication PMC10550821, “Cryo-EM structures reveal native GABAA receptor assemblies and pharmacology” (Nature, 2023)
